Where two headings read alike, the source gives them in different places. At least one compound was matched to its structure with a doubt left. Marks after values point to notes of the source that are not given here.
Experiments:
[1] = starred values; log P estimated using SRC program
[2] = molar aqueous solubility, log value; cited from earlier work

With Cc1ccc(-c2cc(C(F)(F)F)nn2-c2ccc(S(N)(=O)=O)cc2)cc1 [Celecoxib] the LogSw [1] was −3.66* moles/L.
In the case of S=c1ccss1 [dithiolethione], the LogSw [2] is given as −2.48 moles/L.
For COc1ccc(-c2cc(=S)ss2)cc1 [Anethole trithione], the LogSw [2] is given as −5.80 moles/L.

Source: patent publication US20040175401A1, “Enhanced parmacokinetic profile of hydrophobic substances” (priority 2001, published 2004)
